Values from PubChem BioAssay AID1159599 (NIAID, 2016).

- Assay: 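Which TLR pathway genes are needed for LPS-driven Tnf promoter activity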
- System: mouse RAW264.7 G9 macrophage reporter clone cells
- Knock-down reagent: single siRNA against mouse genes
- Time to read-out: 48 to 72 h after siRNA transfection, LPS for the last 16 h
- Conditions: LPS (Salmonella minnesota R595), 16 h before fixation; dose not stated
- Detection: 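Nuclear mCherry from a Tnf promoter reporter imaged after LPS, background removed, robust z-score from per-plate median and MAD, averaged over replicates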
- Scale: Tnf reporter z-score: higher = stronger Tnf promoter reporter signal after LPS
- Hit rule: 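Called active if the mean z-score over replicates passes 1.5 in either direction, up or down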
- Meaning of the calls: active = strong change either way; inactive = little change
The deposit covers 756 reagents; this is a part drawn at random. 130 of all reagents (17%) count as active. 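Calls are two-sided: actives include siRNAs that raised the Tnf reporter as well as ones that lowered it.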 Reagents against one gene are numbered here. The record does not give: the amount of reagent.

Knock-down of Rela (GeneID 19697) #1 came out at: Tnf reporter z-score, replicate mean -0.301; inactive. Knock-down of Rela (GeneID 19697) #2 came out at: Tnf reporter z-score, replicate mean 0.564; inactive. For Rela (GeneID 19697) #3, the values are Tnf reporter z-score, replicate mean -1.12; inactive. For Rela (GeneID 19697) #4 the deposit lists Tnf reporter z-score, replicate mean -1.81; active. Against Rela (GeneID 19697) #5, the values are Tnf reporter z-score, replicate mean -0.224; inactive. For Rela (GeneID 19697) #6 the deposit lists Tnf reporter z-score, replicate mean -0.814; inactive.

After knock-down of Tlr6 (GeneID 21899) #1, the record shows Tnf reporter z-score, replicate mean 0.504; inactive. For Tlr6 (GeneID 21899) #2 the deposit lists Tnf reporter z-score, replicate mean 1.51; active. Depletion of Tlr6 (GeneID 21899) #3 gave: Tnf reporter z-score, replicate mean -1.88; active. Silencing of Tlr6 (GeneID 21899) #4 gave: Tnf reporter z-score, replicate mean 0.113; inactive. After knock-down of Tlr6 (GeneID 21899) #5, the record shows Tnf reporter z-score, replicate mean -0.474; inactive. For Tlr6 (GeneID 21899) #6 the deposit lists Tnf reporter z-score, replicate mean -0.453; inactive.

Against Peli1 (GeneID 67245) #1, the values are Tnf reporter z-score, replicate mean 1.46; inactive. With knock-down of Peli1 (GeneID 67245) #2 the results were Tnf reporter z-score, replicate mean 0.476; inactive. Peli1 (GeneID 67245) #3 showed Tnf reporter z-score, replicate mean 0.268; inactive. With knock-down of Peli1 (GeneID 67245) #4, the screen gave Tnf reporter z-score, replicate mean 2.59; active. With knock-down of Peli1 (GeneID 67245) #5, the record shows Tnf reporter z-score, replicate mean -1.22; inactive. Knock-down of Peli1 (GeneID 67245) #6 came out at: Tnf reporter z-score, replicate mean -0.644; inactive.

Reformatted: entries from further up
gene	siRNA no.	Tnf reporter z-score, replicate mean	activity call
Rela (GeneID 19697)	4	-1.81	active
Rela (GeneID 19697)	5	-0.224	inactive
Rela (GeneID 19697)	6	-0.814	inactive
Tlr6 (GeneID 21899)	1	0.504	inactive
Tlr6 (GeneID 21899)	2	1.51	active
Tlr6 (GeneID 21899)	3	-1.88	active
Tlr6 (GeneID 21899)	4	0.113	inactive

More records:
Against Egr1 (GeneID 13653) #1, the entry reads Tnf reporter z-score, replicate mean -0.923; inactive. Depletion of Egr1 (GeneID 13653) #2 came out at: Tnf reporter z-score, replicate mean -2.19; active. Depletion of Egr1 (GeneID 13653) #3 gave: Tnf reporter z-score, replicate mean -2.25; active. Egr1 (GeneID 13653) #4 scored Tnf reporter z-score, replicate mean -0.147; inactive. Against Egr1 (GeneID 13653) #5, the values are Tnf reporter z-score, replicate mean -1.5; inactive. After knock-down of Egr1 (GeneID 13653) #6, the record shows Tnf reporter z-score, replicate mean -0.367; inactive.

Against Rac1 (GeneID 19353) #1 the deposit lists Tnf reporter z-score, replicate mean 0.618; inactive. Rac1 (GeneID 19353) #2 showed Tnf reporter z-score, replicate mean 0.549; inactive. Silencing of Rac1 (GeneID 19353) #3 gave: Tnf reporter z-score, replicate mean 0.147; inactive. Rac1 (GeneID 19353) #4 scored Tnf reporter z-score, replicate mean -0.219; inactive. Knock-down of Rac1 (GeneID 19353) #5 came out at: Tnf reporter z-score, replicate mean -0.947; inactive. Rac1 (GeneID 19353) #6 gave Tnf reporter z-score, replicate mean -0.299; inactive.

After knock-down of Irak1 (GeneID 16179) #1 the results were Tnf reporter z-score, replicate mean -0.995; inactive. Against Irak1 (GeneID 16179) #2 the deposit lists Tnf reporter z-score, replicate mean 0.926; inactive. Silencing of Irak1 (GeneID 16179) #3 gave: Tnf reporter z-score, replicate mean -0.393; inactive. Irak1 (GeneID 16179) #4 scored Tnf reporter z-score, replicate mean 1.54; active. Depletion of Irak1 (GeneID 16179) #5 came out at: Tnf reporter z-score, replicate mean -0.0589; inactive. Irak1 (GeneID 16179) #6 scored Tnf reporter z-score, replicate mean -0.785; inactive.

With knock-down of Pik3r5 (GeneID 320207) #1, the screen gave Tnf reporter z-score, replicate mean 0.276; inactive. Against Pik3r5 (GeneID 320207) #2, the values are Tnf reporter z-score, replicate mean -0.0672; inactive. Against Pik3r5 (GeneID 320207) #3, the entry reads Tnf reporter z-score, replicate mean -1.83; active. Against Pik3r5 (GeneID 320207) #4, the values are Tnf reporter z-score, replicate mean -0.962; inactive. Pik3r5 (GeneID 320207) #5 gave Tnf reporter z-score, replicate mean -1.52; active. Knock-down of Pik3r5 (GeneID 320207) #6 resulted in: Tnf reporter z-score, replicate mean -0.511; inactive.
